# Assay results: the supplement of paper PMC11438910
# The list shows a part of the results. Most of these values are background signal.
# B1: 4-127.2 (protein)
# chain 1: QVQLQESGPGLVKPSETLSLTCAVSGYSVNSGHGWTWIRQSPGKGLEWIGYIGGGSGSSNYNPSLKSRVTISKDTSNNQLSLKLRSLTTADTAMYYCARRVPADRSGNDYWGQGVLVTVSS
# chain 2: QSVLTQPPSVSGDPGQRVTISCTGSSSNIGDYYGYWYQQFPGTAPKLLIFDDNNRPSGISDRFSGSKAGTSASLTITGLQPGDEADYYCGAWDGSLNAHVFGSGTKLTVL
# Experiments:
# Experiment in all cases: fluorescence intensity of antibody binding to polysaccharide-coupled beads; higher = stronger binding
# [1] = biological target: pneumococcal polysaccharide Pn2
# [2] = biological target: pneumococcal polysaccharide Pn20A
# [3] = biological target: pneumococcal polysaccharide Pn20B
# [4] = biological target: pneumococcal polysaccharide Pn21
# [5] = biological target: pneumococcal polysaccharide Pn22A
# [6] = biological target: pneumococcal polysaccharide Pn22F
# [7] = biological target: pneumococcal polysaccharide Pn23A
# [8] = biological target: pneumococcal polysaccharide Pn23B
# [9] = biological target: pneumococcal polysaccharide Pn23F
# [10] = biological target: pneumococcal polysaccharide Pn24A
# [11] = biological target: pneumococcal polysaccharide Pn24B
# [12] = biological target: pneumococcal polysaccharide Pn24F
# [13] = antibody concentration 2337.65 ng/mL
# [14] = antibody concentration 12500 ng/mL
# [15] = antibody concentration 0.1 ng/mL
# [16] = antibody concentration 0.534724 ng/mL
# [17] = antibody concentration 2.8593 ng/mL
# [18] = antibody concentration 15.2894 ng/mL
# [19] = antibody concentration 81.7561 ng/mL
# [20] = antibody concentration 437.17 ng/mL
binder,measurement,setting,value
B1,fluorescence intensity,[1]; [13],22.5 MFI
same,fluorescence intensity,[1]; [14],25.5 MFI
same,fluorescence intensity,[2]; [15],22.2 MFI
same,fluorescence intensity,[2]; [16],21.2 MFI
same,fluorescence intensity,[2]; [17],22 MFI
same,fluorescence intensity,[2]; [18],22.2 MFI
same,fluorescence intensity,[2]; [19],21.5 MFI
same,fluorescence intensity,[2]; [20],23.5 MFI
same,fluorescence intensity,[2]; [13],34 MFI
same,fluorescence intensity,[2]; [14],214 MFI
same,fluorescence intensity,[3]; [15],24 MFI
same,fluorescence intensity,[3]; [16],23 MFI
same,fluorescence intensity,[3]; [17],22.5 MFI
same,fluorescence intensity,[3]; [18],22 MFI
same,fluorescence intensity,[3]; [19],23 MFI
same,fluorescence intensity,[3]; [20],24.5 MFI
same,fluorescence intensity,[3]; [13],26 MFI
same,fluorescence intensity,[3]; [14],50 MFI
same,fluorescence intensity,[4]; [15],17.2 MFI
same,fluorescence intensity,[4]; [16],19.5 MFI
same,fluorescence intensity,[4]; [17],18.5 MFI
same,fluorescence intensity,[4]; [18],18.5 MFI
same,fluorescence intensity,[4]; [19],17.2 MFI
same,fluorescence intensity,[4]; [20],18 MFI
same,fluorescence intensity,[4]; [13],18.2 MFI
same,fluorescence intensity,[4]; [14],26 MFI
same,fluorescence intensity,[5]; [15],21.5 MFI
same,fluorescence intensity,[5]; [16],20.5 MFI
same,fluorescence intensity,[5]; [17],21.5 MFI
same,fluorescence intensity,[5]; [18],19.5 MFI
same,fluorescence intensity,[5]; [19],21 MFI
same,fluorescence intensity,[5]; [20],21 MFI
same,fluorescence intensity,[5]; [13],26 MFI
same,fluorescence intensity,[5]; [14],88.5 MFI
same,fluorescence intensity,[6]; [15],30.2 MFI
same,fluorescence intensity,[6]; [16],32 MFI
same,fluorescence intensity,[6]; [17],31.8 MFI
same,fluorescence intensity,[6]; [18],27.8 MFI
same,fluorescence intensity,[6]; [19],30 MFI
same,fluorescence intensity,[6]; [20],30.8 MFI
same,fluorescence intensity,[6]; [13],33 MFI
same,fluorescence intensity,[6]; [14],46 MFI
same,fluorescence intensity,[7]; [15],23.5 MFI
same,fluorescence intensity,[7]; [16],25.8 MFI
same,fluorescence intensity,[7]; [17],24.5 MFI
same,fluorescence intensity,[7]; [18],23.8 MFI
same,fluorescence intensity,[7]; [19],26.5 MFI
same,fluorescence intensity,[7]; [20],29.5 MFI
same,fluorescence intensity,[7]; [13],52.5 MFI
same,fluorescence intensity,[7]; [14],67.8 MFI
same,fluorescence intensity,[8]; [15],28.5 MFI
same,fluorescence intensity,[8]; [16],29 MFI
same,fluorescence intensity,[8]; [17],28.5 MFI
same,fluorescence intensity,[8]; [18],28.2 MFI
same,fluorescence intensity,[8]; [19],28.5 MFI
same,fluorescence intensity,[8]; [20],28.5 MFI
same,fluorescence intensity,[8]; [13],32 MFI
same,fluorescence intensity,[8]; [14],36.5 MFI
same,fluorescence intensity,[9]; [15],16.5 MFI
same,fluorescence intensity,[9]; [16],16.5 MFI
same,fluorescence intensity,[9]; [17],17.5 MFI
same,fluorescence intensity,[9]; [18],17.5 MFI
same,fluorescence intensity,[9]; [19],16.8 MFI
same,fluorescence intensity,[9]; [20],20.8 MFI
same,fluorescence intensity,[9]; [13],22 MFI
same,fluorescence intensity,[9]; [14],28.5 MFI
same,fluorescence intensity,[10]; [15],15 MFI
same,fluorescence intensity,[10]; [16],15.2 MFI
same,fluorescence intensity,[10]; [17],15 MFI
same,fluorescence intensity,[10]; [18],16.2 MFI
same,fluorescence intensity,[10]; [19],15.2 MFI
same,fluorescence intensity,[10]; [20],15 MFI
same,fluorescence intensity,[10]; [13],16.8 MFI
same,fluorescence intensity,[10]; [14],28 MFI
same,fluorescence intensity,[11]; [15],16.8 MFI
same,fluorescence intensity,[11]; [16],17 MFI
same,fluorescence intensity,[11]; [17],16 MFI
same,fluorescence intensity,[11]; [18],18.5 MFI
same,fluorescence intensity,[11]; [19],17.5 MFI
same,fluorescence intensity,[11]; [20],18.5 MFI
same,fluorescence intensity,[11]; [13],23 MFI
same,fluorescence intensity,[11]; [14],50 MFI
same,fluorescence intensity,[12]; [15],19 MFI
same,fluorescence intensity,[12]; [16],16 MFI
same,fluorescence intensity,[12]; [17],18 MFI
same,fluorescence intensity,[12]; [18],17 MFI
same,fluorescence intensity,[12]; [19],18.5 MFI
same,fluorescence intensity,[12]; [20],20.5 MFI
same,fluorescence intensity,[12]; [13],27.8 MFI
same,fluorescence intensity,[12]; [14],40.5 MFI

# 7 records picked at random from those above:
binder,measurement,setting,value
B1,fluorescence intensity,[6]; [16],32 MFI
same,fluorescence intensity,[5]; [15],21.5 MFI
same,fluorescence intensity,[9]; [15],16.5 MFI
same,fluorescence intensity,[7]; [18],23.8 MFI
same,fluorescence intensity,[12]; [14],40.5 MFI
same,fluorescence intensity,[4]; [19],17.2 MFI
same,fluorescence intensity,[12]; [17],18 MFI
